# Library screen at single concentrations

From ChEMBL document CHEMBL3988442, “University of Dundee, Small-Polar-MMV Screening Library” (2021).

Values are the deposited “Percent Effect”, in %. The controls that fix the scale are not given in the record; negative values are as filed. The compounds are a random part of those screened. Two or more numbers in one place are separate tests of the same structure; such repeats can differ widely.

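Whole-cell growth test on Mycobacterium tuberculosis, read after 4 days in a medium based on cholesterol and the lipid DPPC; the read-out is not stated. Tested at 50 µM. Direction is inferred from retests: higher values go with more growth inhibition. About 69,000 compounds were tested under these conditions; 0.54% (about 370) showed 50% or more at least once.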

Compound	effect
Cc1nn(C)c2nc(N3CCCC3c3nccs3)sc12 (stereo not given)	9.856
CCN(CC)CC1CN(CCc2ccccc2)Cc2nccn2C1.O=C(O)C(F)(F)F.O=C(O)C(F)(F)F (stereo not given)	0.5042
Oc1cc(CCC2CCCCN2)cc(-c2cccnc2)c1 (stereo not given)	-1.71
O=C(NCCN1CCCCC1)c1nc(-c2cccc3[nH]ccc23)no1	-25.92
CC(C)c1nn(C)c(N(C)C)c1CNC1CCC(O)CC1 (stereo not given)	20.64
Cc1nc(C(=O)NCc2ccc(N3CCNC(=O)C3)c(F)c2)cs1	6.126 and -8.972
O=C(O)C(F)(F)F.[H][C@@]12CCN(Cc3ccc(C)s3)C[C@]1(COCC(=O)N(C)C)CCO2	-16.12
CN(C)S(=O)(=O)c1ccc(CNC(=O)C2CC2)cc1	-2.929
COc1ccc2c(c1)CCN(CCC(=O)NC1CCCCC1)CC2	10.93
Cc1cc(C)cc(CNc2ccc(C(=O)NC(C)CO)cc2)c1 (stereo not given)	-14.94
CC(=O)C(Cc1ccccc1)NC(=O)CSc1nncn1C (stereo not given)	-25.06
Cc1cc(C)c2nc(C)cc(C(=O)NC(C)c3nnn[nH]3)c2c1 (stereo not given)	-6.912
[H][C@@]12CS(=O)(=O)C[C@]1([H])N(S(=O)(=O)c1cn(C)cn1)CCN2CC(C)C	-9.767
CN(C)CC1(O)CCCN(C(=O)c2cnc(-c3ccccn3)nc2)C1 (stereo not given)	-6.328
Cn1nc(C#N)c2c1CN(C(=O)c1ccsc1)CCC2	-18.15
Cn1ccnc1CN1CCC2(CC1)CCN(Cc1ccoc1)C2.O=C(O)C(F)(F)F.O=C(O)C(F)(F)F	-2.003
c1ccc(C(c2ccccc2)N2CCN(CCn3cncn3)CC2)cc1	-5.507 and -1.589
CCc1ccc(CN2CCN(C)C3(CCC(=O)N(CC4CC4)CC3)C2)o1 (stereo not given)	3.122 and -24.24
CSc1ccc(NC(=O)Cc2cccc(O)c2)nc1	-0.3067
Cc1ccc(N2CCC3(CCN(C(=O)c4ccoc4)CC3)CC2)nn1.O=C(O)C(F)(F)F	-1.2
COCCCNS(=O)(=O)c1ccc2c(c1)NC(=O)C(C)O2 (stereo not given)	-28.56
O=C(c1cnco1)N1CCC(Cc2cccc3ncccc23)CC1	-35.86 and -12.53
O=C(Cn1ccc(C(=O)O)n1)Nc1c(Cl)cccc1Cl	9.621
O=C(c1cc[nH]n1)N1CCC(c2nccn2Cc2ccncc2)CC1	-7.437 and -10.09
CCn1nc2c(cc1=O)CN(CC(=O)Nc1nncs1)CC2	-4.596
Cc1nc(C2(NCC(=O)NC(=O)NCC(F)(F)F)CCCCC2)no1	-21.57
CN(Cc1ccc(Cl)s1)C(=O)Cn1nc(-c2ccc(F)cc2)oc1=O	93.38
Cc1ccc2oc(=O)n(CCC(=O)N3CCN(C)C(=O)C3)c2c1	-5.66
Cc1cc(C(F)(F)F)cc(N2C[C@@H](CN(C)CCO)[C@@H](CO)C2)n1	-4.88
CC(NC(=O)NCCCn1cncn1)c1ccccc1Cl (stereo not given)	-6.46
Cc1ccc(C(=O)Nc2ccc(N3CCCC3)cn2)cc1F	-24.24
CCCS(=O)(=O)N1CCC2(CC1)CN(C(=O)N(C)C)c1ccccc12	-3.24 and -14.07
COc1ccc2cccc(CC(=O)NCc3n[nH]c(=O)[nH]3)c2c1	2.97
c1ccc(Cn2cccn2)c(CNCc2cnc(N3CCCC3)nc2)c1	21.34
O=C1NCC2(CCN(C(=O)c3ccc4c(c3)CCCO4)CC2)O1	-5.083
Cc1ccc2c(n1)N(CC1CC1)CCN(Cc1ccco1)C2.O=C(O)C(F)(F)F.O=C(O)C(F)(F)F	29.14
Cc1nc(C)n(CC2CN(CCOc3ccc(C#N)cc3)CCO2)n1 (stereo not given)	10.87
Cc1cc(CN(C)C(=O)C2CCCN(C(N)=O)C2)no1 (stereo not given)	-0.3308
CN(Cc1ccsc1)C(=O)CN1CCCCC1Cn1cccn1 (stereo not given)	-6.18
CC(C)N1CCc2c(CN(C)Cc3ccco3)cncc2C1.Cl.Cl.Cl	31.63
CC(C)c1noc(-c2ccc(NCCCC3CCOC3)nc2)n1 (stereo not given)	2.613
CCCn1cc(C(=O)NC(C(=O)O)c2ccccc2C(F)(F)F)c(C)n1 (stereo not given)	13.55
Cc1cc(NC(=O)CN2CCCC2c2noc(C3CC3)n2)no1 (stereo not given)	6.754
Cc1ccc(CN(C)C(=O)CN2CCCCC2Cn2cncn2)o1 (stereo not given)	-1.207
CCN1CCN(c2ccc(CNC(=O)c3ccc(Cl)o3)cn2)CC1	-12.81
Cc1ccc(Oc2ncccc2CNC2CCSCC2)cn1	8.03
N#Cc1ccc(CS(=O)(=O)NC(=O)COc2ccc3c(c2)CCC3)cc1	-9.876
Cc1cc(NC(=O)CCN2CCCC2Cn2cncn2)no1 (stereo not given)	-0.8399
Cc1ccc(CN[C@@H]2COC[C@H]2Cc2cc(C)no2)cc1.O=C(O)CC(O)(CC(=O)O)C(=O)O	2.727
O=C(Cc1n[nH]c2ccccc12)N1CCC(Nc2cccnn2)CC1	-1.063
[H][C@]12CCN(C(=O)CC(C)(C)C)CC[C@@]1([H])S(=O)(=O)CCN2S(C)(=O)=O	0.8828 and -2.664
O=C(O)C(F)(F)F.[H][C@]12CCC[C@@]1(COCC(=O)N(C)C)CN(C1CCCC1)C2	11.57
O=C(O)C(F)(F)F.O=C(O)C(F)(F)F.[H][C@@]12OCCN(Cc3nccs3)[C@@]1([H])CC[C@H]2Oc1ncccc1F	-5.08
[H][C@@]12CN(c3ccc(C)nn3)C[C@]1([H])OCCN2Cc1c(C)noc1C	-25.85
Cc1ccnc(C(NC(=O)c2oc(C)nc2C)C2CC2)n1 (stereo not given)	11.42
CN1CCC(Nc2ccc(F)cc2OCC(F)(F)F)C1=O (stereo not given)	-12.46
CCc1nc(C(=O)N2CCN(C)c3ccccc32)c[nH]1	-4.29
O=C(NCc1ccccc1Cl)c1[nH]nc2c1CS(=O)(=O)CC2	23.41
COc1ccccc1-c1cc(C(=O)N(C)C)c2cnn(C)c2n1	7.895
CCN(Cc1ccncc1)C1CCCN(Cc2ccc(F)cc2OC)C1 (stereo not given)	14.75
CC1(C)COCCN1C(=O)Cc1csc(Cc2ccccn2)n1	-19.37
CN(CCS(=O)(=O)c1cc(Cl)ccc1Cl)CC(=O)Nc1ccc(F)cc1	6.233
OCCN1CCC(CNCc2ccc(N3CCCCC3)cc2)CC1	18.31 and 5.361
O=c1c2ccccc2nc2n1C(CSc1ccc(Br)cc1)CN2 (stereo not given)	11.82
CC(C)C1CCCN1CCCc1nc(-c2cccs2)no1 (stereo not given)	8.948
COCCN(C)C[C@@H]1CN(C(=O)c2sc3ccccc3c2C)C[C@@H]1CO	4.753
Cc1cc(C)n(C2CCCN(C(=O)c3cccc4[nH]ncc34)C2)n1 (stereo not given)	-0.9795 and -3.324
COCCCC1(CO)CCCN(Cc2ccc(F)c(OC)c2)C1 (stereo not given)	-8.214 and -2.826
Cc1nonc1C1CCCN1C(=O)c1cc2n(n1)CCCN(C(C)C)C2 (stereo not given)	-14.75
CC(NC(=O)C1CCN(S(N)(=O)=O)CC1)c1cccc(OC(F)F)c1 (stereo not given)	-23.25
CCOc1ccc(C(=O)NCc2ccnc(N3CCCC3)c2)cn1	4.165
O=C(c1ccc2[nH]ccc2c1)N1CCCSCC1CN1CCCC1 (stereo not given)	-13.67
[H][C@]12CC[C@]([H])(CN(C(=O)c3ccccc3)C1)N(C(=O)OC(C)C)C2	-8.645 and -17.21
Cc1cnc(CN(C)C2CCN(Cc3nc4ccccc4n3C)C2)o1 (stereo not given)	-26.87
CC(=O)N1CCCN(C(=O)NC(C)Cn2cccn2)CC1 (stereo not given)	-27.09
Cc1nc(CC(C)C)cc(C(=O)N2C[C@@H](N(C)C)[C@H](C(C)C)C2)n1	12.93

Repeated from the top, 4 entries:

Compound,effect
Cc1nn(C)c2nc(N3CCCC3c3nccs3)sc12 (stereo not given),9.856
CCN(CC)CC1CN(CCc2ccccc2)Cc2nccn2C1.O=C(O)C(F)(F)F.O=C(O)C(F)(F)F (stereo not given),0.5042
Oc1cc(CCC2CCCCN2)cc(-c2cccnc2)c1 (stereo not given),-1.71
O=C(NCCN1CCCCC1)c1nc(-c2cccc3[nH]ccc23)no1,-25.92